Assay results from PubChem BioAssay AID2427 (National Center for Advancing Translational Sciences (NCATS), 2010).
Inconclusive means that the source gave no clear call. Such entries were picked first, then a sample of the others. Calls of active or inactive are those of the source.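 The calls were made as follows: active = melting temperature shift above 3 C; inconclusive = shift above 1 C but not above 3 C; inactive = the rest.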

Protein sequences, listed by entry. Tags and fused reporters are not part of them. Lines headed by an entry give the natural chain unless they say otherwise; changes in a name come on top.
UniProt P15428: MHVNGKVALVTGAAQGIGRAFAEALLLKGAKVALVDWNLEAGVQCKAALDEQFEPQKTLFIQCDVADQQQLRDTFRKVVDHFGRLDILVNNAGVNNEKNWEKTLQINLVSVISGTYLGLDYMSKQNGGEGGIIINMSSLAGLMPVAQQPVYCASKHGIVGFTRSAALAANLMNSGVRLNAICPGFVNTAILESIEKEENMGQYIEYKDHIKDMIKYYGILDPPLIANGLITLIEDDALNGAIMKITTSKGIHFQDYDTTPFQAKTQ

These compounds were tested against 15-hydroxyprostaglandin dehydrogenase [NAD(+)] (Homo sapiens) (UniProt P15428) (assay: Thermal Shift Assay for Inhibitors of HPGD (15-Hydroxyprostaglandin Dehydrogenase)). Settings: Recombinant HPGD thermal shift, SYPRO orange DSF, at 250 µM, stronger effect = higher value.
Procedure: Assay Overview: Human 15-Hydroxyprostaglandin dehydrogenase (HPGD) catalyzes the inactivation of prostaglandin E2, and plays a major role in cancer biology by antagonizing the oncogenic potential of cyclooxygenase type 2 (COX2). Studies to assess the stability of human 15-PGDH in presence of compounds was performed as described (Niesen et al., 2007) with variations. References 1. Myung SJ, Rerko RM, Yan M, Platzer P, Guda K, Dotson A, Lawrence E, Dannenberg AJ, Lovgren AK, Luo G, Pretlow TP, Newman RA, Willis J, Dawson D, Markowitz SD. 15-Hydroxyprostaglandin dehydrogenase is an in vivo suppressor of colon tumorigenesis. Proc Natl Acad Sci U S A. 2006 Aug 8;103(32):12098-102. 2. Yan M, Rerko RM, Platzer P, Dawson D, Willis J, Tong M, Lawrence E, Lutterbaugh J, Lu S, Willson JK, Luo G, Hensold J, Tai HH, Wilson K, Markowitz SD. 15-Hydroxyprostaglandin dehydrogenase, a COX-2 oncogene antagonist, is a TGF-beta-induced suppressor of human gastrointestinal cancers. Proc Natl Acad Sci U S A. 2004 Dec 14;101(50):17468-73. 3. Yang L, Amann JM, Kikuchi T, Porta R, Guix M, Gonzalez A, Park KH, Billheimer D, Arteaga CL, Tai HH, Dubois R, Carbone DP, Johnson DH. Inhibition of Epidermal Growth Factor Receptor Signaling Elevates 15-Hydroxyprostaglandin Dehydrogenase in Non-Small-Cell Lung Cancer. Cancer Res. 2007 Jun 15;67(12):5587-5593. 4. Niesen FH, Berglund H, Vedadi M: The use of differential scanning fluorimetry to detect ligand interactions that promote protein stability. Nature protocols 2007; 2:2212-2221 NIH Chemical Genomics Center [NCGC] Structural Genomics Consortium [SGC]
HPGD was diluted to a final assay concentration of 1 uM in 100 mM Tris buffer, pH 8.0, containing 0.01% Tween-20 and 1:1000 SYPRO orange dye. The final assay volume is 10 ul, with or without 200 uM of either NAD+ or NADH. Compounds were added 1:5 from appropriate stock solutions in 10% (v/v) DMSO to comprise either 50 or 250 uM final concentrations. Heat denaturation curves were recorded using a RT-PCR instrument (Mx3005p, Agilent) applying a temperature gradient of 2 degree C/min. […]

Row | Structure (SMILES) | thermal shift (delta Tm)
1 | O=P1(Nc2ccc(F)cc2)COc2ccccc2OC1 | inactive: 0.5 C
2 | CCN(CC)C(=O)c1ccc(NC(=O)c2cc(-n3cnnc3)ccc2Cl)cc1 | inconclusive: 1.2 C
3 | CN[C@@H](C)[C@H](O)c1ccccc1 | inconclusive: 1.5 C
